In all, about 340,000 compounds went through this assay and about 6,200 (1.8%) were called active. Inconclusive means that the source gave no clear call. Such entries were picked first, then a sample of the others. The call rests on the fitted dose curve; in most records, active means well fitted activation curve with a large enough effect; inconclusive means small, poorly fitted or top-dose-only effect; inactive means no such curve, though single readings can be large or run the other way. Potencies of inconclusive entries are doubtful fits and often do not repeat.
assay: A quantitative high throughput screen for small molecules that induce DNA re-replication in SW480 colon adenocarcinoma cells.; further: nearly all actives have a fitted effect of over 55% in size; on re-replication activation: % of control where 0% means no effect; settings: Hoechst DNA content imaging, 48 h; re-replication activation: at 46.1 µM (top of the series) unless noted
Method in brief: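 Hoechst fluorescence of nuclei (405 nm excitation, 500-530 nm emission) measured by plate-scanning imager after 48 hr compound exposure at 37 C; re-replication scored as increased number of nuclei with elevated intensity.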
Potency means the concentration at half of the fitted maximal effect.

Row | SMILES | re-replication activation | Potency
1 | C=CCOC(=O)/C=C/C(=O)NC(N)=O | inactive: -4.48% | –
2 | CC1(CC(=O)Nc2ccccc2)NC(=S)N(c2ccccc2)N1 (stereo not given) | inactive: -6.87% | –
3 | CN1CCN(C(c2cccc(C(F)(F)F)c2)c2nnnn2C(C)(C)C)CC1 (stereo not given) | inactive: 1.87% | –
4 | COc1ccc(NC(=O)c2ccc3c(c2)S(=O)(=O)N=C2CCCCCN23)cc1S(N)(=O)=O | – | inconclusive: 7.31 µM [activator, partial curve]
5 | Oc1c(Br)cc(Br)cc1/C=N/n1c(-c2ccccc2)n[nH]c1=S | – | inconclusive: 6.51 µM [activator, single point]
6 | CN(C)/C=C/c1onc(-c2c(F)cccc2Cl)c1C#N | – | inconclusive: 18.4 µM [activator, partial curve, poor fit]
7 | COc1cc(NC(=O)c2ccc(C)cc2)c(OC)cc1NC(=O)CN1CCCCC1 | – | inconclusive: 16.4 µM [activator, single point]
8 | COc1ccc(N=C2NC(=O)/C(=C\c3ccco3)S2)cc1 | inactive: 8.22% | –
9 | COc1cccc(CNC(=O)c2csc3c2CCCC3)c1 | – | inconclusive: 29.1 µM [activator, single point]
10 | O=C(NCC(=O)N(Cc1ccccc1)C(C(=O)NC1CCCC1)c1cccnc1)c1ccco1 (stereo not given) | – | inconclusive: 6.31 µM [activator, single point]
11 | CCOC(=O)c1c(CSc2ccc(C)cc2)n(C)c2cc(Br)c(O)c(CN(C)C)c12 | inactive: 15% | –
12 | CCC(C)C(NC(=O)C1CCC(C)CC1)C(=O)NC(C(=O)OC)C(C)C (stereo not given) | inactive: -2.99% | –
13 | CCCCC(=O)NC(c1ccc([N+](=O)[O-])cc1)c1c(O)ccc2ccccc12 (stereo not given) | – | inconclusive: 29.1 µM [activator, single point]
14 | O=c1c(-c2ccc(O)cc2)coc2cc(O)cc(O)c12 | – | inconclusive: 35.1 µM [activator, partial curve, poor fit]
15 | O=C1CSCC(=O)N1c1ncc(C(F)(F)F)cc1Cl | inactive: -6.26% [at 9.22 µM] | –
16 | Nc1cc2nsnc2cc1Br | – | active: 18.4 µM
17 | CC(=O)c1cc(C#N)c(N2CCCC2)nc1C | – | inconclusive: 6.51 µM [activator, single point]
18 | CCOC(=O)c1c(S(=O)(=O)NCCc2cccs2)c(C)n(C)c1C | – | inconclusive: 4.61 µM [activator, partial curve, poor fit]
19 | CCC(C)Nc1cc(C)c(C#N)c2nc3ccccc3n12 (stereo not given) | – | inconclusive: 20.6 µM [activator, single point]
20 | CCn1ncc(CN2CCCC(C(=O)Nc3cccc(-c4cc5ccccc5[nH]4)c3)C2)c1C (stereo not given) | – | inconclusive: 29.1 µM [activator, single point]
21 | CCOc1ccc(N(C(=O)c2snc(C(N)=O)c2N)C(C(=O)NCC2CCCO2)c2c[nH]c3ccccc23)cc1 (stereo not given) | inactive: 10.8% | –
22 | Cc1ccc(C(=O)Nc2ncc(Cc3ccccc3)s2)o1 | inactive: -19.5% | –
23 | Nc1ccc(-c2nnn(Cc3ccccc3F)n2)cc1 | – | inconclusive: 6.51 µM [activator, single point]
24 | Cn1c(CNc2ccc(Cl)cc2)nc2ccccc21 | inactive: -5.06% | –

Row | SMILES | re-replication activation | Potency
25 | N#Cc1ccccc1COc1cccc2c1CCCC2O (stereo not given) | inactive: 0.916% | –
26 | COc1ccc(NC(=O)CN(C)C(=O)c2ccc(NC3CC3)c([N+](=O)[O-])c2)cc1 | – | inconclusive: 13 µM [activator, partial curve, poor fit]
27 | Cc1ccc(C(C)C)c(OCC(=O)Nc2ccc3c(c2)nc(CCN2CCCCC2)n3C)c1 | – | inconclusive: 25.9 µM [activator, single point]
28 | Cc1ccnc(N(C(=O)Nc2ccccc2)C2=NCC(C)(C)S2)c1 | – | inconclusive: 6.51 µM [activator, partial curve, poor fit]
29 | Cc1ccc(C(=O)NCC(=O)OC(C)C(=O)Nc2ccc(N3CCOCC3)cc2)s1 (stereo not given) | – | inconclusive: 29.1 µM [activator, single point]
30 | O=C(Nc1nc(N2C(=O)c3ccccc3C2=O)n(-c2ccccc2)n1)c1ccccc1 | inactive: -2.34% | –
31 | CC(C)NC(=O)C1CCN(C2CCN(Cc3ccc4cccc(F)c4n3)CC2)CC1 | inactive: 17.2% | –
32 | Cc1ccc(-n2[nH]c(=O)c(-c3ccccn3)c2C)cc1 | – | inconclusive: 6.51 µM [activator, single point]
33 | COCC(C)NC(=S)NCCc1ccc(Cl)cc1Cl (stereo not given) | – | inconclusive: 3.66 µM [activator, single point]
34 | Cc1c(Cl)c(C(=O)NNC(=S)Nc2ccccc2)nn1C | – | inconclusive: 23.1 µM [activator, single point]
35 | Cc1ccc(S(=O)(=O)N(CC(=O)N2CCC(C)CC2)Cc2ccccc2F)cc1 | – | inconclusive: 32.6 µM [activator, partial curve, poor fit]
36 | CCOC(=O)C1CCCN(CC(=O)Nc2c(C(=O)OC)[nH]c3ccc(C)cc23)C1 (stereo not given) | inactive: 12.7% | –
37 | O=C(Nc1ccc(S(=O)(=O)C(F)F)cc1)c1cccc(S(=O)(=O)N2CCOCC2)c1 | inactive: -0.0406% | –
38 | Cc1ccc([N+](=O)[O-])cc1NC(=O)Nc1onc(C)c1C | inactive: -4.52% | –
39 | COc1cc2c3c([nH]c2cc1F)C(=O)NCC3 | inactive: -7.62% | –
40 | CCOC(=O)C1=NNC2(c3ccccc3)C(=O)N(c3cccc(Br)c3)C(=O)C12 (stereo not given) | – | inconclusive: 20.6 µM [activator, partial curve, poor fit]
41 | CN(C)CCN(C)Cc1ccccc1Sc1cccc2ccccc12 | – | inconclusive: 16.4 µM [activator, single point]
42 | Cc1ccc(S(=O)(=O)Oc2ccccc2/C=C2\SC(=O)NC2=O)cc1 | inactive: -1.13% | –
43 | COc1ccc(/C=C/C(=O)c2c(C)cc(C)[nH]c2=O)c2ccccc12 | – | inconclusive: 11.6 µM [activator, partial curve]
44 | CCc1ccc(NC(=O)C2CCCN(S(=O)(=O)c3cccnc3)C2)cc1 (stereo not given) | – | inconclusive: 23.1 µM [activator, single point]
45 | CCCC(C(=O)NC1CCCC1)N(C(=O)Cn1nnc(-c2ccc(C)o2)n1)C1CCCC1 (stereo not given) | – | inconclusive: 29.1 µM [activator, single point]
46 | CC(=O)NC1=C(NC2CCS(=O)(=O)C2)C(=O)c2ccccc2C1=O (stereo not given) | – | active: 18.4 µM
47 | C=CCNC(=S)N1CCN(S(=O)(=O)c2ccc(C)cc2)CC1 | – | inconclusive: 29.1 µM [activator, single point]
48 | COc1ccc(-n2c(CNc3ccc(C)cc3)nnc2SCc2ccccc2)cc1 | inactive: -10.8% | –

Row | SMILES | re-replication activation | Potency
49 | CC(C)CC(NC(=O)c1ccccc1)C(=O)OCC(=O)Nc1ccc(S(N)(=O)=O)cc1 (stereo not given) | – | inconclusive: 0.651 µM [activator, partial curve, poor fit]
50 | Cc1ccc(C)c(CN2C(=O)CSc3ccc(C(=O)NCCN4CCOCC4)cc32)c1 | inactive: 0.0911% | –
51 | Cc1ccc(-c2csc(NC(=O)c3cccs3)n2)cc1 | – | inconclusive: 23.1 µM [activator, partial curve, poor fit]
52 | O=C1c2cnc3ncnn3c2CC2c3ccccc3CCN12 (stereo not given) | – | inconclusive: 6.51 µM [activator, single point]
53 | CCc1ccc(OCC(=O)NCC(c2ccc(Cl)cc2)N2CCCCC2)cc1 (stereo not given) | – | active: 9.2 µM
54 | Cc1noc(NS(=O)(=O)c2ccc(NC(=O)c3ccccc3NS(=O)(=O)c3ccc(F)cc3)cc2)c1C | inactive: 1.52% | –
55 | COc1ccc(-c2onc(C)c2-c2ccccc2)c(O)c1 | – | inconclusive: 29.1 µM [activator, single point]
56 | Cc1cc(N2CCCCCC2)nc(-c2ccccc2O)n1 | – | inconclusive: 0.0046 µM [activator, full curve, poor fit]
57 | CC(=O)CC1=NC(C)(C)Cc2ccccc21 | inactive: -18.7% | –
58 | COc1ccc(-c2csc(N(CC(C)C)C(=O)c3ccco3)n2)cc1 | – | inconclusive: 29.1 µM [activator, single point]
59 | COc1cc(OC)cc(-c2nnc(SCc3c(F)cccc3Cl)o2)c1 | inactive: -4.43% | –
60 | CCCCCCSc1cc(-c2nc3ccc(C)cn3c2NCc2ccccc2)ccc1OC | – | inconclusive: 1.16 µM [activator, single point]
61 | O=C(CCC(=O)Nc1cccc(Cl)c1)N/N=C/c1cc([N+](=O)[O-])ccc1O | – | inconclusive: 29.1 µM [activator, single point]
62 | Nc1nonc1-n1nnc(C(=O)N/N=C\c2cccc(Cl)c2)c1CN1CCOCC1 | – | inconclusive: 18.4 µM [activator, partial curve, poor fit]
63 | COc1ccc(S(=O)(=O)N(CC(=O)Nc2cccnc2)c2ccccc2OC)cc1 | – | inconclusive: 32.6 µM [activator, partial curve, poor fit]
64 | Cc1cc(C)cc(Oc2nc3c(C)cccn3c(=O)c2/C=C(\C#N)C(=O)NC2CCS(=O)(=O)C2)c1 (stereo not given) | – | inconclusive: 18.4 µM [activator, partial curve, poor fit]
65 | CCc1cc(C(=O)N2CCN(c3ccccc3OC)CC2)sc1C | – | inconclusive: 29.1 µM [activator, single point]
66 | CC1CCC(NC(=O)C2CCN(C(=O)Nc3ccccc3)CC2)CC1 (stereo not given) | inactive: -1.36% | –
67 | Cc1ccc(-n2c(SCC(=O)Nc3ccc(Cl)cc3)nc(O)cc2=O)cc1 | – | inconclusive: 2.59 µM [activator, single point]
68 | COc1ccc(/C=N/n2cnc3c([nH]c4ccc(C)cc43)c2=O)cc1CN1CCCC1 | – | inconclusive: 16.4 µM [activator, single point]
69 | Cc1ccc(C)c(NS(=O)(=O)c2ccc(-c3cnc(C4CC4)o3)cc2)c1 | – | inconclusive: 0.326 µM [activator, partial curve, poor fit]
70 | C/C(=N\NC(=O)c1cccc(Cl)c1)C1C(=O)c2ccccc2C1=O | – | active: 3.66 µM

Arranged by molar mass (falling): part of the list above
Row | SMILES | re-replication activation | Potency
62 | Nc1nonc1-n1nnc(C(=O)N/N=C\c2cccc(Cl)c2)c1CN1CCOCC1 | – | inconclusive: 18.4 µM [activator, partial curve, poor fit]
70 | C/C(=N\NC(=O)c1cccc(Cl)c1)C1C(=O)c2ccccc2C1=O | – | active: 3.66 µM
55 | COc1ccc(-c2onc(C)c2-c2ccccc2)c(O)c1 | – | inconclusive: 29.1 µM [activator, single point]
